From publication PMC9485057

Target: T1, Skp1-myc (C-terminally myc-tagged Skp1B) (D. discoideum) (UniProt Q557E4)
T1 sequence: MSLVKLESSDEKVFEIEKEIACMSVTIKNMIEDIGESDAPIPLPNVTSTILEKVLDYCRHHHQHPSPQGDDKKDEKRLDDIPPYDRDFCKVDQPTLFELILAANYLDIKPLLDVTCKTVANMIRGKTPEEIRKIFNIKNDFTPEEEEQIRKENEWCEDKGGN
Assay: affinity purification with mass spectrometry; Skp1-myc captured with anti-c-myc (mAb 9E10) magnetic beads from S21 lysate of vegetative cells (250 mM NaCl, 50 mM Tris-HCl pH 8.0, 0.2% NP-40), 4 °C 1 h; control: untagged strain; label-free nLC-MS/MS

- binding: binds
B1: CulA (protein, UniProt O60999 1-770)
chain: MSMMTSTPTKRSVKLDDIWPELEEGIYKIITDLNKGFPKQKWIALYTHVYDYCAASQSKSSAKVGMPKQQASGANYVGEDLYNRLNLFLKKHMSQLLKLTETKMDEPLLNYYYTEWDRYTSAMKYINNIFQYMNRYWIKREIDDGKKEVYEIFILSLVIWRDCLFTPLKQRLTNSLLDIIESERNGYQINTHLIKGVINGYVSLGLNREKPKETILQVYKSGFEELFLTATENYYTNESAKFISENSVADYMKKVETRLNEEVKRVQQYLHQNTESELIAKCEKVLIEKHVEVIWNEFQTLLEKDKIPDLTRMYSLLSRIPRGLEPLRTTLEKHVQNVGLQAVSSIATNGVIEPKVYIETLLKVFKKYNELVTGAFRSDTGFVASLDKACRRFINENAVTIAAKSSSKSPELLARFTDFLLKKSPNNPEESEMEQLLNDVMIVFKYIEDKDVFQDFYSKMLAKRLIHGTSTSEDLEGTMIGKLKSTCGYEYTSKLQRMFTDMSLSRELLDRFNNHIEQVERSSLNIDFSVLVLATGSWPLQPPSTNFSIPKELQACEQLFQKFYQNQHSGRKLNWLHHLSKGELKTKYLQTSKSGYTLQCSTYQIGVLLQFNQYETLTSEEIQESTQLIDSVLKGTLTSLAKSKILLADPPLDDEEIAKTTKFSLNKQFKNKKTKIFINVPVLTQVKEEIDSIHKTVEEDRKLQIQAAIVRIMKMRKQLAHSGLMTEVISQLQTRFNPKVNIIKKCIDILIEKEYLMRVEGKKDHYSYVA

- binding: binds
B2: CulE (protein, UniProt Q54XF7 1-750)
chain: MSDQITVDELWAECEQTFEDLFLNLKKGLSRKRYMEIYTKIYNYCSSANEKALIDFYIPKVKVLVAQKAVEIMSRSESYPNDALLLFFRNQWNEWKMSSNVLKNLLSPVNKIHSSDKKTTSSSANQNESVVYSDTLNSWRETAFNPLKNKLSVSLLQIIKNDRTGFSTNLQVLSDSLECYVQLGPEKNKLEIYQSCFEQQFLQETETFYKAESADFIEKNGVCEYMRHVYNRIEQETNRVNQYMPISTLEKLTKILNNVLISNYKEQFASKFLDILIEDKSSDLVMMYSLLSRVNHLTPLKNIFSDFIKSEGLKEIESNLKEAQEKPQVLISILLKIYSRFNIMIKECYGNDTDFTTAMDKSFSILVNENPASYDPKKKESNIPVVLSKFCDQILRKGPHHISDEAELEKKLTEAVCLFKYLPDKDIFMLNYQKMLSKRLVEDLSASEDAETLMINKLKNYQGFDYCTKLTRMITDMRLCKDININFQNHLNEKSLTLPYQFNFYVLTNGSWTLTNKQTATPFKPPSEMLSSITYFESFYKKSYQGRVLTFLYDFSRADVDSRQAKGKIYKLTTTAYQMAILLMFNGADKITRFLINDTIGLDETSIRLPLLALIKTGIIECSEPSFKNWNNDTEFTVNSKFSSKKMKVSCNIAVQIGETKQSEGQQTVSEQEIEKERFFKLQAAIVRIMKSKKTMTHNDLTVETTTQVSKWFTPKITAIKKAIEYLIDQEYIRRTTDDNPSARKYEYMA

No constants are given. Whether binding was seen depends on the method and setting. In cells and extracts the contact can be indirect. A yes stands for co-enrichment or nearness to the bait. Other partners may have been found. Sequences can lack the tags named with a protein. Each block holds one binder with its values, some of them ahead of it.
